# Measurements reported in PubChem BioAssay AID1159584 (Peter MacCallum Cancer Centre, 2016)
# Assay: 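Genes whose loss is lethal only together with E-cadherin loss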 (primary screen)
# Cell system: human MCF10A breast epithelial cells, parental and CDH1-null
# Reagent: siRNA against human genes
# Measured: 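Cell viability by CellTiter-Glo ATP luminescence, each line scaled to the mean of mock wells across plates, then CDH1-null over parental ratio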
# Scale: CDH1-null / parental viability ratio: higher = CDH1-null cells survive relatively better than parental; CDH1-null viability vs mock: higher = more viable CDH1-null cells; parental viability vs mock: higher = more viable parental cells
# Here is one part, drawn at random, of about 18,000 reagents. Not stated in the record: the amount of reagent, the time to read-out.
target gene,CDH1-null / parental viability ratio,CDH1-null viability vs mock (fraction of mock),parental viability vs mock (fraction of mock)
PMP22,0.98,0.78,0.8
NCOA1,0.88,0.71,0.81
GH2,1.06,1.02,0.96
GZMA,1.01,0.68,0.67
CDKL2,0.73,0.52,0.71
CPXM1,1.37,0.82,0.6
FBXO10,1.03,0.8,0.78
LRRC59,1.24,0.57,0.46
SEH1L,1,0.42,0.42
ETV3,1,0.52,0.52
PCDH8,0.82,0.54,0.66
GSS,0.88,0.89,1.01
GDF9,0.85,0.41,0.48
HERC5,0.99,0.8,0.81
SPEG,0.94,0.85,0.9
BRAF,0.67,0.55,0.82
GIMAP1,0.98,0.84,0.86
STAB1,0.95,0.95,1
DOK1,1.53,0.9,0.59
SH2D2A,1.17,0.98,0.84
CENPV,1.09,0.87,0.8
TRIM55,0.93,0.97,1.04
VMO1,1.19,1.12,0.94
LARGE2,1.03,1.06,1.03
CDC25A,1.48,0.86,0.58
P2RY2,1.17,0.88,0.75
POU5F2,1.06,0.53,0.5
MYEF2,0.86,0.5,0.58
ZNF135,1.15,0.97,0.84
CBLC,1.03,0.96,0.93
ATP7A,0.94,0.66,0.7
NR4A2,0.81,0.6,0.74
GCNT1,0.9,0.88,0.98
FRAT2,1.01,0.95,0.94
TGFBI,0.93,0.78,0.84
THEMIS2,1.01,0.98,0.97
HSD17B13,1,1.15,1.15
PTPRS,1.19,0.74,0.62
UMPS,0.98,0.9,0.92
FLYWCH1,1.18,0.9,0.76
ZP2,1.08,0.93,0.86
CLEC2L,1.01,0.97,0.96
DYNLT5,1.28,0.82,0.64
GC,1.22,0.93,0.76
MCOLN2,1.26,0.88,0.7
SMC3,1.03,0.7,0.68
